Among the data in publication doi:10.1101/2022.07.12.499798 are binding values, retold here.

For test [1], the target named is T1, KRP4 (Kip-Related Protein 4), yeast construct (rice (Oryza sativa)) (UniProt Q7XDH8).
T1 sequence: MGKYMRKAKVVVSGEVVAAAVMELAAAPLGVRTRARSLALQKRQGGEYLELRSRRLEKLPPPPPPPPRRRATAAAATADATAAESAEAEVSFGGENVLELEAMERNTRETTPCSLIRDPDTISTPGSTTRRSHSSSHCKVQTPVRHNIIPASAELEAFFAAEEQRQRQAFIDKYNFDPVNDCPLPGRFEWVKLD
The experiment in a line: two-hybrid.

Test [2] addresses T2, KRP5 (Kip-Related Protein 5), yeast construct (rice (Oryza sativa)) (UniProt Q283L0).
T2 sequence: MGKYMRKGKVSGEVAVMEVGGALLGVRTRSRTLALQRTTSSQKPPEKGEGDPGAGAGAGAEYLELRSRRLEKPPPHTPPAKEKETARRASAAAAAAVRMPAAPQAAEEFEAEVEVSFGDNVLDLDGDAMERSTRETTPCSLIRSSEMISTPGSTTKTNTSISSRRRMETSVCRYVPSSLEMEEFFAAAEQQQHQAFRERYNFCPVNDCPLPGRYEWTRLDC
In words: two-hybrid.

Test [3] has as its target T3, KRP4-nEYFP (rice (Oryza sativa)) (UniProt Q7XDH8).
T3 sequence: T1 sequence
In words: split reporter.

Test [4] concerns the target T4, KRP5-nEYFP (rice (Oryza sativa)) (UniProt Q283L0).
T4 sequence: T2 sequence
The experiment in a line: split reporter.

Test [5] addresses T5, CDKB2;1, yeast construct (rice (Oryza sativa)) (UniProt Q0J4I1).
T5 sequence: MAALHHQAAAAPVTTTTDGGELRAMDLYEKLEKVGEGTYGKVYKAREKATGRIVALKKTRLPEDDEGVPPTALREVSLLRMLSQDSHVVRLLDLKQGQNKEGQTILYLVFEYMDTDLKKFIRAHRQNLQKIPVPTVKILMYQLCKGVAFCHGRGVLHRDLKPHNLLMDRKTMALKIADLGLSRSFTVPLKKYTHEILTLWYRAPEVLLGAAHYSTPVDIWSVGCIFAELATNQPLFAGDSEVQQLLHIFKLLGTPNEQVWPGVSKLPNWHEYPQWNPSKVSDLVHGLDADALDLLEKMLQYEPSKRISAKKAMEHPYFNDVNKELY
The experiment in a line: two-hybrid.

The target in test [6] is T6, CDKE1, yeast two-hybrid construct (rice (Oryza sativa)) (UniProt Q336M2).
T6 sequence: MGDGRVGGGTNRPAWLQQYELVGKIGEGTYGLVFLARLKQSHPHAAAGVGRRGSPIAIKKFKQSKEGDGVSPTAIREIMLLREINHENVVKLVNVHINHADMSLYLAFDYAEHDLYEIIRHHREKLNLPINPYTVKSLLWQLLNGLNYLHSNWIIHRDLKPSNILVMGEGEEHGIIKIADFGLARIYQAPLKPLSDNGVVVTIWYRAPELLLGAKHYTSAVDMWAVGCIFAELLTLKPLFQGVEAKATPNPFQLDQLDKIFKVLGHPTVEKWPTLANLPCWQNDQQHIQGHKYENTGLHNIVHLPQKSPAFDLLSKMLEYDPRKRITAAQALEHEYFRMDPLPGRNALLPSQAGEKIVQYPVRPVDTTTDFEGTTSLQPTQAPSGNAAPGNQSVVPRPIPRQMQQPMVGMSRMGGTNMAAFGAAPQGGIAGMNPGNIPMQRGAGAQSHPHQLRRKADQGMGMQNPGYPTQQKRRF
In words: two-hybrid.

No constants are given. Whether binding was seen depends on the method and setting. For part of these data: Binding can be weak; no strength is given. For part of these data: Binding seen in cells or lysates may run through a third protein.

“FB3 (F-box protein 3), yeast two-hybrid prey (rice (Oryza sativa))”: the binding result in test [1] and in test [2] was “binds” each time.

For the substance “FB3_(F-box)-cEYFP, truncated FB3 (rice (Oryza sativa)) (domain or fragment)”, the binding result in test [3] and in test [4] was “binds” throughout.

Regarding “CYCD2;1, yeast two-hybrid prey (rice (Oryza sativa))”, the binding result in test [5] was “binds”; in test [6] it was “no binding”.
